Earlier results in US20020045664A1, “Estrogen mimetics lacking reproductive tract effects” (The University of Georgia Research Foundation, Inc, priority 1999, published 2002).

System: MCF-7 cells
Conditions: concentration at which growth stimulation was 50% maximal; read-out: MCF-7 Cell Growth EC50; cited from earlier work

| Structure (SMILES) | EC50 [nM] |
| --- | --- |
| CC/C(=C(\c1ccccc1)c1ccc(OCCN(C)C)cc1)c1ccccc1 [trans-tamoxifen, (Z)-2-[4-(1,2-diphenyl-1-butenyl)phenoxy]-N,N-dimethylethanamine] | 0.11 |
| CC/C(=C(/c1ccccc1)c1ccc(OCCN(C)C)cc1)c1ccccc1 [cis-tamoxifen] | 11 |
